AC50 data for 68 compounds are collected here from PubChem BioAssay AID662 (National Center for Advancing Translational Sciences (NCATS), 2007).

What is called AC50 is the concentration at which the activity in the assay is half-maximal.

The structures appear in SMILES notation. The list shows a part of the results. The main result of the screen is listed elsewhere. These columns were measured beside it and carry no call. The list favours compounds with an active or inconclusive main result. Potencies come from curve fits of mixed quality, noted in brackets.

The nature of the test: Cell signaling CRE-BLA (Fsk stim). The settings on record: CHO CRE-bla reporter (cAMP response element driving beta-lactamase), forskolin EC10, beta-lactamase ratio; measured here: 460 nm blue channel. An outline of the steps: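 The 460nm/530nm emission ratio after CCF4 loading defined %Activity, from which AC50 values were obtained. CRE-bla CHO cells received compound dilution series together with an EC10 level of NKH 477 for 3 hours at 37 degrees Celsius.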
Take `CC(O)CNc1nc2ccccc2n1-c1ncnc2sc3c(c12)CCC3` (stereo not drawn): the concentration at half-maximal activity (AC50) was 2 µM [rising, full curve, poor fit].

`CCc1ccc(Nc2nc(N)nc(CSc3nnnn3-c3ccccc3)n2)cc1`: the AC50 is 12.6 µM [rising, partial curve].

In the case of `CS(=O)(=O)N(CC(=O)N1CCCC1)c1cccc(Cl)c1`, the half-maximal activity concentration (AC50) is 0.631 µM [falling, full curve, poor fit].

As to `Cc1nc(N2CCN(Cc3ccc4c(c3)OCO4)CC2)c2oc3ccccc3c2n1`, the concentration at half-maximal activity (AC50) was 2 µM [rising, full curve].

For the compound `OCc1ccccc1OCCOc1ccc(Cl)c2cccnc12`, the concentration at half-maximal activity (AC50) is 10 µM [rising, single point].

With `OC(CNCCc1ccc(Cl)cc1)COCc1ccco1` (stereo not drawn), the concentration at half-maximal activity (AC50) was 15.8 µM [falling, partial curve].

As for `N#Cc1cccc(-c2ccc3ncnc(NCc4cccnc4)c3c2)c1`, the half-maximal activity concentration (AC50) was 10 µM [rising, partial curve].

Consider `Clc1ccc(Cn2ncc3c(N4CCOCC4)ncnc32)cc1`, for which the half-maximal activity concentration (AC50) was 10 µM [rising, single point].

In the case of `O=c1c2ccccc2nc2n1CC/C2=C/N1CCN(c2cccc(C(F)(F)F)c2)CC1`, the half-maximal activity concentration (AC50) was 5.01 µM [falling, partial curve].

Regarding `O=c1c2ccccc2nnn1CSc1nnc(-c2cccs2)n1Cc1ccccc1`, the half-maximal activity concentration (AC50) was 25.1 µM [rising, single point].

With `C=CCOc1ccc2c(c1)c(S(=O)(=O)c1ccc(C)cc1)cn2COC`, the half-maximal activity concentration (AC50) is 10 µM [rising, single point].

As for `CCn1c(=O)c2cc(C(=O)N3CCN(C(=O)c4ccco4)CC3)sc2c2ccccc21`, the AC50 was 3.16 µM [rising, full curve].

As for `Cc1nc(C)c(C(=O)NCc2ccc(Cl)cc2)o1`, the half-maximal activity concentration (AC50) was 0.316 µM [falling, partial curve].

Take `CC(C)c1ccc(O)c(NC(=O)c2cncc(Br)c2)c1`: the concentration at half-maximal activity (AC50) is 2.51 µM [falling, single point].

As to `CCOc1ncccc1C(=O)OCCN1C(=O)c2ccccc2C1=O`, the concentration at half-maximal activity (AC50) is 5.01 µM [rising, single point].

Regarding `CCn1c(SCC(=O)Nc2ccc3c(c2)OCO3)nc2c1c(=O)n(C)c(=O)n2C`, the concentration at half-maximal activity (AC50) was 2.51 µM [rising, full curve, poor fit].

Regarding `CC(=O)Nc1nc(CC(C)C)cc(-c2ccco2)c1C#N`, the concentration at half-maximal activity (AC50) is 25.1 µM [rising, single point].

Regarding `COC(=O)c1c(NC(=O)C2CC=CCC2C(=O)O)sc(C(N)=O)c1C` (stereo not drawn), the concentration at half-maximal activity (AC50) is 0.0316 µM [falling, full curve, poor fit].

Turning to `CCc1nc(SCc2cccnc2)c2c(=O)n(C)c(=O)n(C)c2n1`, the AC50 is 2.51 µM [rising, full curve].

`COc1ccc(Cc2nnc(SCC(=O)c3ccccc3)o2)cc1`: the concentration at half-maximal activity (AC50) was 5.01 µM [falling, single point].

For `O=C(Nc1ccccc1C(=O)Nc1ccccc1C(=O)NCc1ccco1)c1ccco1`, the half-maximal activity concentration (AC50) was 3.16 µM [rising, partial curve].

Regarding `Cc1ccc2cc3c(NC(=O)CC(C)C)nn(C)c3nc2c1`, the half-maximal activity concentration (AC50) was 7.94 µM [rising, partial curve].

`CCOc1cc(C(=O)Nc2cc(=O)n(C)c(=O)n2C)cc(OCC)c1OCC`: the AC50 was 0.00316 µM [falling, full curve].

As for `O=C(CCN1c2ccccc2Sc2ccccc21)OCc1nnc(-c2ccccc2)o1`, the AC50 is 3.16 µM [rising, single point].

`CC(=O)C1=C(C)NC(SCC(=O)c2cc(Cl)ccc2Cl)=C(C#N)C1c1ccco1` (stereo not drawn): the half-maximal activity concentration (AC50) is 15.8 µM [falling, single point].

For `O=c1c(-c2ccccc2)nc2cnc(Oc3ccccc3)nc2n1C1CC1`, the AC50 was 12.6 µM [rising, partial curve].

As for `CCOC(=O)c1cc(-c2ccc3c(c2)OCO3)nc2onc(C)c12`, the AC50 was 12.6 µM [rising, partial curve].

Take `COc1cccc(C(=O)Nc2cc(C)c3c(=O)oc4ccccc4c3n2)c1`: the concentration at half-maximal activity (AC50) is 10 µM [rising, partial curve].

For `COCCCn1c(=N)c(C(=O)NCc2ccc3c(c2)OCO3)cc2c(=O)n3ccccc3nc21`, the AC50 is 10 µM [rising, partial curve].

Turning to `O=C(NC1CCCCC1)N1CCC(c2nc3ccc(Cl)cc3[nH]2)CC1`, the concentration at half-maximal activity (AC50) was 12.6 µM [rising, partial curve].

As for `CCn1nc(C(=O)N2CCc3ccccc3C2)c2ccccc2c1=O`, the concentration at half-maximal activity (AC50) is 15.8 µM [rising, partial curve, poor fit].

With `COCCN1Cc2c(sc(C)c2C)N(C(=O)c2ccccc2)C1`, the AC50 was 12.6 µM [rising, single point].

With `COc1nc(N(C#N)CC(N)=O)nc(N2CCCC2)n1`, the half-maximal activity concentration (AC50) is 10 µM [rising, partial curve].

Regarding `COc1ccc(-c2cc(C(F)F)nc(-n3nc(C)cc3C)n2)cc1`, the AC50 was 12.6 µM [rising, partial curve].

With `Cc1occc1C(=O)Nc1sc2c(c1C(N)=O)CCCCC2`, the concentration at half-maximal activity (AC50) is 0.316 µM [rising, full curve].

For `COc1cccc(/C=N/n2cncn2)c1OCC#N`, the half-maximal activity concentration (AC50) was 0.02 µM [falling, full curve, poor fit].

Consider `CCOC(=O)c1c(NC(=O)CSc2nnc(-c3cccnc3)n2Cc2ccco2)sc(C)c1C`, for which the AC50 was 2.51 µM [rising, full curve].

As to `CC1CCc2nc(NCCO)nc(C(F)(F)F)c2C1` (stereo not drawn), the concentration at half-maximal activity (AC50) was 12.6 µM [rising, single point].

As to `CCOCC(=O)Nc1ccc(-c2cn3cccnc3n2)cc1`, the AC50 was 0.251 µM [falling, full curve].

As to `CCOC(=O)c1nc(NCc2cccnc2)c2ccccc2n1`, the concentration at half-maximal activity (AC50) is 12.6 µM [rising, partial curve].

For the compound `C=CCn1c(CCNC(=O)C(C)(C)C)nc2ccccc21`, the AC50 was 0.0794 µM [falling, full curve, poor fit].

Turning to `O=C(Nc1ccc2c(c1)OCO2)C1Cc2ccccc2CN1S(=O)(=O)c1cccs1` (stereo not drawn), the AC50 was 12.6 µM [falling, partial curve].

Turning to `CCOC(=O)c1ccccc1NC(=O)COc1ccccc1`, the half-maximal activity concentration (AC50) was 10 µM [rising, partial curve].

In the case of `c1ccc(CCCNc2ncnc3nc[nH]c23)cc1`, the half-maximal activity concentration (AC50) is 7.94 µM [rising, partial curve].

Regarding `COc1cc2c(O)c3c(c(-c4ccc5c(c4)OCO5)c2cc1OC)C(=O)OC3`, the concentration at half-maximal activity (AC50) was 5.01 µM [rising, single point].

Turning to `CC(=O)OC[C@H]1O[C@@H](n2ccc(=O)[nH]c2=S)C(OC(C)=O)C1OC(C)=O` (stereo partly drawn), the AC50 was 0.00398 µM [falling, full curve, poor fit].

For the compound `COc1cc(NC(=O)c2ccc(COCC(F)(F)F)o2)cc(OC)c1OC`, the concentration at half-maximal activity (AC50) was 15.8 µM [rising, partial curve].

`CCc1cc2c(C)cc(=O)oc2cc1OC(=O)C1CCCN1C(=O)OC(C)(C)C` (stereo not drawn): the AC50 was 10 µM [rising, single point].

For `CC(=O)c1cccc(NC(=O)C2CCCC2)c1`, the half-maximal activity concentration (AC50) was 1 µM [falling, single point].

For `CCCn1c(C)nc2c(N3CCN(C)CC3)nc(C)nc21`, the AC50 was 20 µM [rising, single point].

Turning to `N#Cc1c(N)oc(-c2ccco2)c1-c1ccco1`, the concentration at half-maximal activity (AC50) was 5.01 µM [falling, partial curve].

For the compound `COC(=O)c1ccc2ncccc2c1`, the AC50 is 25.1 µM [rising, single point].

With `CS(=O)(=O)Nc1ccccc1Oc1ccccc1`, the AC50 is 0.00398 µM [falling, full curve].

In the case of `COc1ccccc1N1CCN(C(c2ccccc2Cl)c2nnnn2C(C)(C)C)CC1` (stereo not drawn), the AC50 is 0.794 µM [rising, full curve, poor fit].

For `COc1ccc(-n2nnnc2SCC(=O)c2ccc(O)c(O)c2)cc1`, the AC50 was 10 µM [falling, partial curve, poor fit].

Consider `O=C(CSc1nc2c(cnn2-c2ccc(F)cc2)c(=O)[nH]1)N1CCCc2ccccc21`, for which the AC50 was 0.00398 µM [falling, full curve, poor fit].

Turning to `c1ccc2[nH]c(CN3CCN(c4ncnc5c4oc4ccccc45)CC3)nc2c1`, the AC50 is 7.94 µM [rising, partial curve].

Turning to `O=C(C1CCCCC1)N1CCCC(c2nc(-c3ccc(F)cc3)no2)C1` (stereo not drawn), the AC50 was 25.1 µM [rising, single point].

As to `COCCOC(=O)C1=C(C)Nc2ncnn2C1c1ccc(F)cc1` (stereo not drawn), the AC50 is 0.0794 µM [falling, single point].

For the compound `COc1ccccc1N1C(=O)C2CC=CC(C)C2C1=O` (stereo not drawn), the concentration at half-maximal activity (AC50) is 0.794 µM [falling, partial curve].

Take `COc1cc(OC)cc(-c2cc3nc4c(c(N5CCN(c6ncccn6)CC5)n3n2)CCCC4)c1`: the half-maximal activity concentration (AC50) was 2.51 µM [rising, full curve].

Regarding `O=C(NCc1ccco1)c1cc2ccc(O)cc2oc1=O`, the AC50 was 2.51 µM [rising, full curve].

Regarding `CC(C)C[C@@H](CC(=O)N[C@H](CC(=O)N[C@@H]1CCCC[C@H]1C(=O)N[C@H](CC(=O)N[C@@H](CCC(=O)O)CC(=O)O)Cc1c[nH]c2ccccc12)C(C)C)NC(=O)[C@@H]1CCCC[C@H]1N`, the half-maximal activity concentration (AC50) is 10 µM [falling, partial curve].

Take `Cc1onc(-c2ccccc2Cl)c1-c1nc(-c2ccccn2)no1`: the concentration at half-maximal activity (AC50) is 12.6 µM [rising, single point].

In the case of `Cn1c(=O)[nH]c(=O)c2c1nc1n2CCCN1CCc1ccccc1`, the AC50 was 10 µM [rising, partial curve].

As for `CCc1noc(C)c1C(=O)Nc1sc(C(=O)N(C)C)c(C)c1C(=O)OC`, the concentration at half-maximal activity (AC50) is 10 µM [rising, partial curve].

On to `CSc1ccccc1NC(=O)c1ccoc1C`, for which the half-maximal activity concentration (AC50) was 12.6 µM [falling, partial curve].

As for `Cc1nc2ccccc2c2oc(C(=O)N3CCc4ccccc4C3)cc12`, the concentration at half-maximal activity (AC50) is 20 µM [falling, single point].
